The source of these data is patent publication US12336981B2, “Compounds and compositions for the inhibition of NAMPT” (Valo Health, Inc., priority 2010, dated 2025).

The chains behind the UniProt entries cited, without tags or fusion partners.
UniProt P43490, whole entry: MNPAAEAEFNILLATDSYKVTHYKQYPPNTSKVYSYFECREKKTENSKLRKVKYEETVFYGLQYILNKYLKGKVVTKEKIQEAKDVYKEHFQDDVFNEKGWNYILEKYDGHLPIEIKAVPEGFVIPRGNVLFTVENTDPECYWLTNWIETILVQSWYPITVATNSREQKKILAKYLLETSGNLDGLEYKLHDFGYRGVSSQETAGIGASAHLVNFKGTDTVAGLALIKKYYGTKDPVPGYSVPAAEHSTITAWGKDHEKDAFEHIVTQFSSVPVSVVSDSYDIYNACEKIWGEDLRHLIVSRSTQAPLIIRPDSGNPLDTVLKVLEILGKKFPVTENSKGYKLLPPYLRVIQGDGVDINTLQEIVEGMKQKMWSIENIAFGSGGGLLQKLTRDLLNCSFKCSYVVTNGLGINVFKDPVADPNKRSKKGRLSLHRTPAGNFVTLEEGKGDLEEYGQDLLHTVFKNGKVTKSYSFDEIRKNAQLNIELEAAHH

The match of structure and compound is tentative.

The first test has as its system A2780 cells. Description: In-vitro cell proliferation assay (SRB), A2780 cells. The test is classed as cell-based. The settings on record: read-out: A2780 IC50 uM, 72 hours, SRB.
As for `Cc1cn(C)c(S(=O)(=O)c2ccc(CNC(=O)c3cnc4nccn4c3)cc2)n1`, the half-maximal inhibitory concentration (IC50) (commonly the concentration needed to halve the response being measured) lay within 1 to 10 µM.
Same read-out and setting: the figure for `COc1cc(F)c(F)cc1S(=O)(=O)c1ccc(CNC(=O)c2cc3ccncc3o2)cc1` is 0.0259 µM; for `CN(C)c1ncc(S(=O)(=O)c2ccc(CNC(=O)c3ccc4nccn4c3)cc2)cn1` it is 0.0036 µM; for `CCOc1cc(F)ccc1S(=O)(=O)c1ccc(CNC(=O)c2cnc3nccn3c2)cc1` it is 0.0143 µM.

Staying with this test, now noted: read-out: A2780 IC50, 72 hours, SRB assay.
`O=C(NCc1ccc(S(=O)(=O)c2ccccc2)cc1)c1cnc2nc[nH]c2c1`: the IC50 was more than 10 µM.
On the same count and under the same terms, then `O=C(NCc1ccc(S(=O)(=O)c2ccccc2)cc1)c1ccc2nnnn2c1`, with more than 30 µM; and `O=C(NCc1ccc(S(=O)(=O)c2ccccc2)cc1)c1c[nH]c2cnccc12`, with more than 10 µM; and `O=C(NCc1ccc(S(=O)(=O)Nc2ccccc2OCCO)cc1)c1cc2cnccc2[nH]1`, with 23.9 µM.

Another test concerns the target NAMPT (Homo sapiens, UniProt P43490). Description: Biochemical inhibition assay: NAMPT enzymatic reaction, NMN quantified by mass spectrometry. The settings on record: read-out: Biochem IC50 uM; NAMPT enzymatic assay.
For `Cc1cn(C)c(S(=O)(=O)c2ccc(CNC(=O)c3cnc4nccn4c3)cc2)n1`, the IC50 worked out at 0.0316 µM.
Still for that read-out and setting: the figure for `CC(C)NC(=O)c1cccc(S(=O)(=O)c2ccc(CNC(=O)c3cc4ccncc4s3)cc2)c1` is 0.0027 µM.
Consider `CN(C)c1ncc(S(=O)(=O)c2ccc(CNC(=O)c3ccc4nccn4c3)cc2)cn1`, for which the IC50 came to 0.0229 µM.

The test is the same for the next values; noted with them: read-out: Biochem IC50 uM; NAMPT enzymatic reaction.
On to `COc1cc(F)c(F)cc1S(=O)(=O)c1ccc(CNC(=O)c2cc3ccncc3o2)cc1`, for which the IC50 is 0.0281 µM.
Still for that read-out and setting: then `CCCCOc1cccc(F)c1S(=O)(=O)c1ccc(CNC(=O)c2ccc3nccn3c2)cc1`, with 0.0053 µM.

The same test, now with this note: read-out: Biochem IC50; NAMPT enzymatic reaction.
Regarding `O=C(NCc1ccc(S(=O)(=O)c2ccccc2)cc1)c1cnc2nc[nH]c2c1`, the IC50 was determined as 5.78 µM.
Regarding `O=C(NCc1ccc(S(=O)(=O)c2ccccc2)cc1)c1ccc2nnnn2c1`, the 50% inhibitory concentration (IC50) was found to be 0.447 µM.
On the same count and under the same terms, the figure for `O=C(CCc1cccnc1)Nc1ccc(S(=O)(=O)N2CCCCC2)cc1` is 0.003 µM.
On the same count and under the same terms, the figure for `O=C(NCc1ccc(S(=O)(=O)c2ccccc2)cc1)c1c[nH]c2cnccc12` is more than 10 µM; for `O=C(NCc1ccc(S(=O)(=O)Nc2ccccc2OCCO)cc1)c1cc2cnccc2[nH]1` it is 19.6 µM.
